From PMC8079276 come the findings set out here.

No constants are given. Whether binding was seen depends on the method and setting. In cells and extracts the contact can be indirect. These calls come from enrichment with a bait or labelling near it, and not all partners need be listed. Where a sequence is shown, tags or fusion partners need not be part of it.

The target in the experiment is T1, UDP-N-acetylglucosamine-peptide N-acetylglucosaminyltransferase (mouse (endogenous in MEFs)) (UniProt Q8CGY8).
T1 sequence: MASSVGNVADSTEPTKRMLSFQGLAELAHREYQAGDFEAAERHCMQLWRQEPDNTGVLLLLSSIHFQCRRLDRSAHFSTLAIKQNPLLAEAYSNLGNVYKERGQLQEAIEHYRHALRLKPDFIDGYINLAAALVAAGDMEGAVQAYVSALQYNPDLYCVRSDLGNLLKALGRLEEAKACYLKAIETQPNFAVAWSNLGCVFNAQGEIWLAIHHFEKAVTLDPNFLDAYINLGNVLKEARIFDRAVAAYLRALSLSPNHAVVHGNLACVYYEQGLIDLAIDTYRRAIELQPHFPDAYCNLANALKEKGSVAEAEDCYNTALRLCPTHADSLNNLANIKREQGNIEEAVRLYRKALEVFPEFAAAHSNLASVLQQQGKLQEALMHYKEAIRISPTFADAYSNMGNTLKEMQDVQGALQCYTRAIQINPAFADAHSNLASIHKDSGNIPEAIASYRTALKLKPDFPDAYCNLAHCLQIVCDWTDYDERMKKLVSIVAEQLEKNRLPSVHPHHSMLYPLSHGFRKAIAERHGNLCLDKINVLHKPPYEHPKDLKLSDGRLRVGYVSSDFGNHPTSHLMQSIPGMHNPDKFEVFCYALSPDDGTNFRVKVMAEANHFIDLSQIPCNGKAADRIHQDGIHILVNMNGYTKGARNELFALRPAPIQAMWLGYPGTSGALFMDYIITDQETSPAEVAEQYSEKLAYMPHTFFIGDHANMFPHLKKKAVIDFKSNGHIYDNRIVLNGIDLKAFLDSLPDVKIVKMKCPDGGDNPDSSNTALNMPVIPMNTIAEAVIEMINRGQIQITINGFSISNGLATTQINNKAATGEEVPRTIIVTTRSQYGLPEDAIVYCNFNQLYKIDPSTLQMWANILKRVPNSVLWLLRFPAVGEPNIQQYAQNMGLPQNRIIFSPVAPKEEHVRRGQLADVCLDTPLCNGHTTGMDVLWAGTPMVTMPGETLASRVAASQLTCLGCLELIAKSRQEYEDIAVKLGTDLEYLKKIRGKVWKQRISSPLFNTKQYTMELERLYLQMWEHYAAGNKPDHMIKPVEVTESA
Nature of the experiment: affinity purification with mass spectrometry; endogenous OGT immunoprecipitated (antibody AL24, protein G magnetic beads, TCL buffer: 50 mM Tris HCl, 150 mM NaCl, pH 7.5, 1% NP-40, 2 mM EDTA) from a 1:1:1 mix of SILAC-labelled lysates of WT, H2O2-treated (2.5 mM, 1.5 h) and OGT-null MEFs, precleared with rabbit IgG; in-gel trypsin digestion, LC-MS/MS; interactor if log2 WT or H2O2/null >=1 in 2 or more replicates.

B1: Protein transport protein Sec24C isoform X1 (protein, UniProt G3X972 1-1096)
chain: MNVNQSAPPVPPYGQNQPIYPGYHQSSYGGQPGPAAPATPYGAYNGPVPGYQQAPPQGVPRAPPSSGAPPASAAQVPCGQTTYGQFGQGDIQNGPSSTAQMQRVPGSQQFGPPLAPVVSQPAVLQPYGPPPTSTQVTAQLAGMQISGAVAQAPPPSGLGYGPPTSLASASGNFPNSGPYGSYPQSQAPPLSQAQGHPGVQPPLRSAPPLASSFTSPASGGPQMPSMTGLLPPGQGFGSLPVNQANHVSSPPAPALPPGTQMTGPPVPPPPPMHSPQQPGYQLQQNGSFGPARGPQPNYESPYPGAPTFGSQPGPPQPLPPKRLDPDAIPSPIQVIEDDRNNRGSEPFVTGVRGQVPPLVTTNFLVKDQGNASPRYIRCTSYNIPCTSDMAKQAQVPLAAVIKPLARLPPEEASPYVVDHGESGPLRCNRCKAYMCPLMTFIEGGRRFQCSFCSCVNDVPPQYFQHLDHTGKRVDAYDRPELSLGSYEFLATVDYCKNNKFPSPPAFIFMIDVSYNAIRTGLVRLLCEELKSLLDYLPREGGAEESAIRVGFVTYNKVLHFYNVKSSLAQPQMMVVSDVADMFVPLLDGFLVNVSESRAVITSLLDQIPEMFADTRETETVFAPVIQAGMEALKAAECAGKLFLFHTSLPIAEAPGKLKNRDDRKLINTDKEKTLFQPQTGTYQTLAKECVAQGCCVDLFLFPNQYVDVATLSVVPQLTGGSVYKYACFQVENDQERFLSDLRRDVQKVVGFDAVMRVRTSTGIRAVDFFGAFYMSNTTDVELAGLDGDKTVTVEFKHDDRLNEENGALLQCALLYTSCAGQRRLRIHNLALNCCTQLADLYRNCETDTLINYMAKFAYRAVLNSPVKTVRDTLITQCAQILACYRKNCASPSSAGQLILPECMKLLPVYLNCVLKSDVLQPGAEVTTDDRAYVRQLVSSMDVAETNVFFYPRLLPLTKSPLDSTAEPPAVRASEERLSSGDIYLLENGLNLFVWVGASVQQGVVQSLFNVSSFSQITSGLSVLPVLDNPLSKKVRGLIDSLRAQRMRYMKLIVVKQEDKLEMLFKHFLVEDKSLSGGASYVDFLCHMHKEIRQLLS
As for B1, the binding result is “binds”.

B2: Gtf2e2 (protein, UniProt Q9D902 1-292)
chain: MDPSLLRDRELFKKRALSTPVVEKRAVPSESPSSSSSKKKKAKVEHGGSSGSKQNSDHNNGSFNLKALSGSSGYKFGVLAKIVNYMKTRHQRGDTHPLTLEEILDETQHLDIGLKQKQWLMTEALVNNPKIEVVDGKYAFKPKYNLKDKKALLRLLDNHDQRGLGGILLEDIEEGLPNSQKAVKALGDQILFVSRPDKKKILFFNDKSCQFSVDEEFQKLWRSVTVDSMDEEKIEEYLKRQGISSMQESGPKKVASIQRRKKPASQKKRRFKTHNEHLAGVLKDYSDITPGK
B2: the binding result is given as “binds”.
